In the supplement of paper PMC11438910:
Some of the results follow. Most of these values are background signal.

Key:
Test in all cases: fluorescence intensity of antibody binding to polysaccharide-coupled beads; higher = stronger binding
[1] = target: pneumococcal polysaccharide Pn34
[2] = target: pneumococcal polysaccharide Pn35A
[3] = target: pneumococcal polysaccharide Pn35B
[4] = target: pneumococcal polysaccharide Pn35C
[5] = target: pneumococcal polysaccharide Pn35F
[6] = target: pneumococcal polysaccharide Pn36
[7] = target: pneumococcal polysaccharide Pn37
[8] = target: pneumococcal polysaccharide Pn38
[9] = target: pneumococcal polysaccharide Pn39
[10] = target: pneumococcal polysaccharide Pn4
[11] = target: pneumococcal polysaccharide Pn40
[12] = target: pneumococcal polysaccharide Pn41A
[13] = target: pneumococcal polysaccharide Pn41F
[14] = target: pneumococcal polysaccharide Pn42
[15] = target: pneumococcal polysaccharide Pn43
[16] = target: pneumococcal polysaccharide Pn44
[17] = target: pneumococcal polysaccharide Pn45
[18] = target: pneumococcal polysaccharide Pn46
[19] = target: pneumococcal polysaccharide Pn47A
[20] = target: pneumococcal polysaccharide Pn47F
[21] = target: pneumococcal polysaccharide Pn48
[22] = target: pneumococcal polysaccharide Pn5
[23] = target: pneumococcal polysaccharide Pn6A
[24] = antibody concentration 0.1 ng/mL
[25] = antibody concentration 0.534724 ng/mL
[26] = antibody concentration 2.8593 ng/mL
[27] = antibody concentration 15.2894 ng/mL
[28] = antibody concentration 81.7561 ng/mL
[29] = antibody concentration 437.17 ng/mL
[30] = antibody concentration 2337.65 ng/mL
[31] = antibody concentration 12500 ng/mL

B1: 4-127.4 (protein)
chain 1: QVQLQESGPGLVKPSETLSLTCGVSGYSISSGHGWSWIRQPPGKGLEWIGYVGGSSGNTNYNPSLKSRVTISKDTSKNQISLKLSSVTAADTAVYYCARRGISGTFGLVDYWGQGVLVTVSS
chain 2: QSVLTQPPSVSGAPGQRVTISCTGSSSNIGGYYVQWYQQLPGSAPKLLIYDNDQRPSGVSDRISGSRSGTSASLTITGLQSEDEADYYCQSFDSFLRGVLFGGGTRLTVL
With B1 the fluorescence intensity [1, 24] was 13.5 MFI, the fluorescence intensity [1, 25] was 14 MFI and the fluorescence intensity [1, 26] was 14 MFI. For the same binder, the fluorescence intensity [1, 27] was 14.5 MFI, the fluorescence intensity [1, 28] was 12.5 MFI and the fluorescence intensity [1, 29] was 15.2 MFI. The fluorescence intensity [1, 30] was 13.5 MFI, the fluorescence intensity [1, 31] was 17 MFI and the fluorescence intensity [2, 24] was 18.5 MFI. The fluorescence intensity [2, 25] was 16 MFI, the fluorescence intensity [2, 26] was 16.5 MFI and the fluorescence intensity [2, 27] was 17 MFI. The fluorescence intensity [2, 28] was 16.5 MFI, the fluorescence intensity [2, 29] was 16.5 MFI and the fluorescence intensity [2, 30] was 17.8 MFI. It also gave a fluorescence intensity [2, 31] of 33 MFI, a fluorescence intensity [3, 24] of 18.5 MFI and a fluorescence intensity [3, 25] of 18.2 MFI. For the same binder, the fluorescence intensity [3, 26] was 17 MFI, the fluorescence intensity [3, 27] was 17.8 MFI and the fluorescence intensity [3, 28] was 17.5 MFI. For the same binder, the fluorescence intensity [3, 29] was 17 MFI, the fluorescence intensity [3, 30] was 20.5 MFI and the fluorescence intensity [3, 31] was 29 MFI. The fluorescence intensity [4, 24] was 19.8 MFI, the fluorescence intensity [4, 25] was 20 MFI and the fluorescence intensity [4, 26] was 20.2 MFI. The fluorescence intensity [4, 27] was 19.2 MFI, the fluorescence intensity [4, 28] was 20 MFI and the fluorescence intensity [4, 29] was 20.5 MFI. For the same binder, the fluorescence intensity [4, 30] was 21.5 MFI, the fluorescence intensity [4, 31] was 23 MFI and the fluorescence intensity [5, 24] was 19.5 MFI. The fluorescence intensity [5, 25] was 17.8 MFI, the fluorescence intensity [5, 26] was 21 MFI and the fluorescence intensity [5, 27] was 18.5 MFI. For the same binder, the fluorescence intensity [5, 28] was 17.5 MFI, the fluorescence intensity [5, 29] was 18.5 MFI and the fluorescence intensity [5, 30] was 21 MFI. For the same binder, the fluorescence intensity [5, 31] was 21 MFI, the fluorescence intensity [6, 24] was 15.5 MFI and the fluorescence intensity [6, 25] was 15.8 MFI. It also gave a fluorescence intensity [6, 26] of 16 MFI, a fluorescence intensity [6, 27] of 15.5 MFI and a fluorescence intensity [6, 28] of 16 MFI. It also gave a fluorescence intensity [6, 29] of 17 MFI, a fluorescence intensity [6, 30] of 18.5 MFI and a fluorescence intensity [6, 31] of 34.5 MFI. It also gave a fluorescence intensity [7, 24] of 23.5 MFI, a fluorescence intensity [7, 25] of 23.8 MFI and a fluorescence intensity [7, 26] of 25 MFI. For the same binder, the fluorescence intensity [7, 27] was 26.5 MFI, the fluorescence intensity [7, 28] was 26.5 MFI and the fluorescence intensity [7, 29] was 31 MFI. It also gave a fluorescence intensity [7, 30] of 39 MFI, a fluorescence intensity [7, 31] of 120 MFI and a fluorescence intensity [8, 24] of 25.5 MFI. For the same binder, the fluorescence intensity [8, 25] was 25 MFI, the fluorescence intensity [8, 26] was 26 MFI and the fluorescence intensity [8, 27] was 25.5 MFI. The fluorescence intensity [8, 28] was 25.5 MFI, the fluorescence intensity [8, 29] was 25 MFI and the fluorescence intensity [8, 30] was 29 MFI. For the same binder, the fluorescence intensity [8, 31] was 37 MFI, the fluorescence intensity [9, 24] was 19 MFI and the fluorescence intensity [9, 25] was 18 MFI. The fluorescence intensity [9, 26] was 16.2 MFI, the fluorescence intensity [9, 27] was 19 MFI and the fluorescence intensity [9, 28] was 18.5 MFI. The fluorescence intensity [9, 29] was 18 MFI, the fluorescence intensity [9, 30] was 19.5 MFI and the fluorescence intensity [9, 31] was 29 MFI. It also gave a fluorescence intensity [10, 24] of 17.5 MFI, a fluorescence intensity [10, 25] of 18 MFI and a fluorescence intensity [10, 26] of 18.5 MFI. The fluorescence intensity [10, 27] was 19 MFI, the fluorescence intensity [10, 28] was 19.2 MFI and the fluorescence intensity [10, 29] was 21.2 MFI. It also gave a fluorescence intensity [10, 30] of 25.5 MFI, a fluorescence intensity [10, 31] of 35.5 MFI and a fluorescence intensity [11, 24] of 17.8 MFI. It also gave a fluorescence intensity [11, 25] of 16.5 MFI, a fluorescence intensity [11, 26] of 17 MFI and a fluorescence intensity [11, 27] of 16.5 MFI. The fluorescence intensity [11, 28] was 16.5 MFI, the fluorescence intensity [11, 29] was 19 MFI and the fluorescence intensity [11, 30] was 19.8 MFI. It also gave a fluorescence intensity [11, 31] of 40 MFI, a fluorescence intensity [12, 24] of 21.5 MFI and a fluorescence intensity [12, 25] of 22.5 MFI. It also gave a fluorescence intensity [12, 26] of 23.5 MFI, a fluorescence intensity [12, 27] of 23.5 MFI and a fluorescence intensity [12, 28] of 24.5 MFI. It also gave a fluorescence intensity [12, 29] of 24.5 MFI, a fluorescence intensity [12, 30] of 25.8 MFI and a fluorescence intensity [12, 31] of 28 MFI. The fluorescence intensity [13, 24] was 11.5 MFI, the fluorescence intensity [13, 25] was 12.5 MFI and the fluorescence intensity [13, 26] was 12 MFI. For the same binder, the fluorescence intensity [13, 27] was 12.5 MFI, the fluorescence intensity [13, 28] was 12.5 MFI and the fluorescence intensity [13, 29] was 15 MFI. It also gave a fluorescence intensity [13, 30] of 16 MFI, a fluorescence intensity [13, 31] of 21 MFI and a fluorescence intensity [14, 24] of 10.5 MFI. It also gave a fluorescence intensity [14, 25] of 12 MFI, a fluorescence intensity [14, 26] of 11.5 MFI and a fluorescence intensity [14, 27] of 11.8 MFI. For the same binder, the fluorescence intensity [14, 28] was 12.5 MFI, the fluorescence intensity [14, 29] was 12.5 MFI and the fluorescence intensity [14, 30] was 13.5 MFI. For the same binder, the fluorescence intensity [14, 31] was 22 MFI, the fluorescence intensity [15, 24] was 14.5 MFI and the fluorescence intensity [15, 25] was 16 MFI. It also gave a fluorescence intensity [15, 26] of 16.5 MFI, a fluorescence intensity [15, 27] of 14 MFI and a fluorescence intensity [15, 28] of 16.8 MFI. The fluorescence intensity [15, 29] was 18.5 MFI, the fluorescence intensity [15, 30] was 26 MFI and the fluorescence intensity [15, 31] was 66.8 MFI. The fluorescence intensity [16, 24] was 26 MFI, the fluorescence intensity [16, 25] was 25.5 MFI and the fluorescence intensity [16, 26] was 26 MFI. For the same binder, the fluorescence intensity [16, 27] was 24.2 MFI, the fluorescence intensity [16, 28] was 23.5 MFI and the fluorescence intensity [16, 29] was 26 MFI. For the same binder, the fluorescence intensity [16, 30] was 27.5 MFI, the fluorescence intensity [16, 31] was 33.2 MFI and the fluorescence intensity [17, 24] was 11 MFI. It also gave a fluorescence intensity [17, 25] of 10 MFI, a fluorescence intensity [17, 26] of 10.5 MFI and a fluorescence intensity [17, 27] of 12 MFI. It also gave a fluorescence intensity [17, 28] of 11 MFI, a fluorescence intensity [17, 29] of 10.8 MFI and a fluorescence intensity [17, 30] of 11.5 MFI. For the same binder, the fluorescence intensity [17, 31] was 17 MFI, the fluorescence intensity [18, 24] was 23 MFI and the fluorescence intensity [18, 25] was 23 MFI. For the same binder, the fluorescence intensity [18, 26] was 22.5 MFI, the fluorescence intensity [18, 27] was 24 MFI and the fluorescence intensity [18, 28] was 24.8 MFI. The fluorescence intensity [18, 29] was 25.5 MFI, the fluorescence intensity [18, 30] was 27 MFI and the fluorescence intensity [18, 31] was 42.2 MFI. It also gave a fluorescence intensity [19, 24] of 14.5 MFI, a fluorescence intensity [19, 25] of 15.5 MFI and a fluorescence intensity [19, 26] of 16 MFI. The fluorescence intensity [19, 27] was 15.2 MFI, the fluorescence intensity [19, 28] was 15.5 MFI and the fluorescence intensity [19, 29] was 15.5 MFI. The fluorescence intensity [19, 30] was 16 MFI, the fluorescence intensity [19, 31] was 22.5 MFI and the fluorescence intensity [20, 24] was 11.2 MFI. For the same binder, the fluorescence intensity [20, 25] was 11 MFI, the fluorescence intensity [20, 26] was 11.5 MFI and the fluorescence intensity [20, 27] was 11.5 MFI. The fluorescence intensity [20, 28] was 12 MFI, the fluorescence intensity [20, 29] was 13.8 MFI and the fluorescence intensity [20, 30] was 13.5 MFI. For the same binder, the fluorescence intensity [20, 31] was 28.8 MFI, the fluorescence intensity [21, 24] was 22.2 MFI and the fluorescence intensity [21, 25] was 21.8 MFI. For the same binder, the fluorescence intensity [21, 26] was 20.5 MFI, the fluorescence intensity [21, 27] was 21.2 MFI and the fluorescence intensity [21, 28] was 21 MFI. It also gave a fluorescence intensity [21, 29] of 22 MFI, a fluorescence intensity [21, 30] of 28 MFI and a fluorescence intensity [21, 31] of 39.5 MFI. The fluorescence intensity [22, 24] was 8.5 MFI, the fluorescence intensity [22, 25] was 9.25 MFI and the fluorescence intensity [22, 26] was 8.75 MFI. The fluorescence intensity [22, 27] was 9.5 MFI, the fluorescence intensity [22, 28] was 9.5 MFI and the fluorescence intensity [22, 29] was 10.5 MFI. For the same binder, the fluorescence intensity [22, 30] was 12 MFI, the fluorescence intensity [22, 31] was 32 MFI and the fluorescence intensity [23, 24] was 22 MFI. The fluorescence intensity [23, 25] was 20.5 MFI, the fluorescence intensity [23, 26] was 22.8 MFI and the fluorescence intensity [23, 27] was 23.5 MFI.
